Screening data

Data taken from PubChem BioAssay AID1159506, deposited by NCATS (2015).

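Luminescence from an EWS-FLI1 target-promoter (NR0B1) reporter, set against a CMV-promoter reporter, two days after silencing single genes in TC32 Ewing sarcoma cells.
Each siRNA was applied at 20 nM.
A z-score of the log NR0B1-over-CMV signal, less the median of siRNAs with the same seed; more negative means a stronger specific loss of the NR0B1 reporter.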

This is part of the screen; most of the strongest results are not listed here.
Sequences are the guide (antisense) strand, without overhang.

strand	gene	seed-corrected z-score
AACUCAAUGAAUCCUAUGC	NME1	-0.2918
UUCAGGUGUACAGUUGUGG	IMPDH2	-0.4153
UUUGAGUCAUCAGUAGGUG	ACY1	-0.9706
ACACGAAUAACAUCAAGUG	MOAP1	-0.0602
AUCUUGUAGGCCGAUUUCC	LONP1	-0.2049
UAUGCAAUAACGAUUUCUG	AGMO	-0.2108
AAUGAUGUAGUCUUUAAUC	SLC26A9	0.07257
UAUUUUGCACAGACGAGUG	ZC3HC1	-0.06277
UUUCAGGACUCGAACAGCC	FMO1	0.004063
UAGACUUGUCAUUCGAUCC	CRISP3	-0.2174
ACUUCUUCAAUUGAAGGCC	TSSK3	0.3079
UUCAUAGUCAGGGCAGCUC	MYEOV	0.09139
UUGACACUCAUGAUGACUC	ACADS	0.1594
UCUGAGAUCAGGGUCUUCC	LHFPL4	-0.2343
AAUAAGUGUCUGAAUAUGC	GCA	1.559
UCUAUGAGAGUCUUUAUCU	CLU	0.6363
AAGGCUAUUUGAUAAAUCC	IMPACT	0.2943
AGAGUACAAAGAGCAGGGC	BCAT1	0.1925
UUGGAAUCAACCUUAAGGC	TATDN2	0.4722
UACGUUUAUGUUUCAAUAC	ZNF148	-0.4038
UUUUAGAUGGGAUUAUUCC	PYHIN1	-0.9503
UUGAAAUAAACCAUGGGUG	IGSF21	1.318
UUUAUACACCGUUUUCUGC	USP2	-0.2104
UACAAUAGCAUCGAUUAUG	PARP15	0.4394
UAUUAAUAAAUUCUCCCUC	TNFRSF12A	0.2625
UUCCAGAUUGCUAAGCAGC	CCDC28B	0.6573
AUGAUGUACACGUACAGGG	MPG	-0.8744
UGUACUAUAUACAUAAUGC	FAM83B	0.1428
AUUGGGUAGACAGAUGAUC	LRRC8E	-1.57
UGACUGCUAAGGCAUGCUC	CCDC191	-0.6066
UUGGGUCUUGUGAGAGUCG	LOC388692	-0.05655
UGAAGGUCCAAGUCCGCCU	NPM2	0.7143
UUUGAGUCCGGAUCAAACC	KIAA1715	0.7047
AAUCUUGUCAUUGUAAGCC	HECW2	0.1483
UCCUCUUUGACAAAGCUCU	ACAP3	-0.1933
AAGGCAUUGACAGUCGUCG	PHEX	0.1027
ACAGUUAACACCUCGAUCC	C19orf25	0.5898
UACACGACACUUCUUUACA	IFNA10	-0.5056
UGAGCAUCCCGGUAGUAGG	RAB26	0.1253
AUAGAUACCAUGUAGGUCG	ATG2A	1.459
UCUCUUCAGAUAUCAGUUC	MLPH	-0.4724
UCAGGGUAGAGAAGUUGCU	EPHX1	-0.0386
UAAGAGCCCACUGAUGAAA	SH3TC1	0.3918
UCUGAGUUGAUGUAGCACC	CNKSR3	0.2854
UAUCUUGCAAAUGAGUACG	ALKBH8	-0.4577
UUCUAUGUAAGUCAUCAUC	TRRAP	-1.558
UUCUUCAUCGGCUUGGUUU	NFYA	0.9225
UCACUCUUUAAUAGAUGCC	IBA57	0.5983
UGGGUUAGCUCUGAGAAGG	LOC285191	1.008
UCAGCCUCCACUCUGUUGC	PPP1R18	-0.04162
AGAAUUUCCCGAGGUUUUC	LOC390876	-0.5776
UUUGACAACAUUCUCAUUG	SHANK2	0.0486
UAUCCAACAAGAUGGGACC	ZNF292	-1.335
UUUCCCUUCAAAUCAGGGC	AIF1	-0.5359
AUCUGUAUAUUAGUAAUGG	UBXN2A	-1.042
UUCACUCUCAUAAGAAGCC	RASGEF1B	-1.853
UUCGUUUAUAGCGCAUUCC	INPP5F	-0.2987

7 of the entries, repeated:

With UAGACUUGUCAUUCGAUCC against CRISP3 the assay gave seed-corrected z-score -0.2174.
With UCUAUGAGAGUCUUUAUCU against CLU the assay gave seed-corrected z-score 0.6363.
With UUGAAAUAAACCAUGGGUG against IGSF21 the assay gave seed-corrected z-score 1.318.
With UAUCUUGCAAAUGAGUACG against ALKBH8 the assay gave seed-corrected z-score -0.4577.
With UGUACUAUAUACAUAAUGC against FAM83B the assay gave seed-corrected z-score 0.1428.
With UUCCAGAUUGCUAAGCAGC against CCDC28B the assay gave seed-corrected z-score 0.6573.
With UACGUUUAUGUUUCAAUAC against ZNF148 the assay gave seed-corrected z-score -0.4038.